Laboratory results published in article PMC12661985, “USP25 deubiquitinates cytosolic METTL3 to impede glioma proliferation via an m6A-independent pathway” (iScience, 2025).
No constants are given. Whether binding was seen depends on the method and setting. Binding seen in cells or lysates may run through a third protein. Some binding calls cover weakened binding; strength is not graded here.

Amino acid sequences for entries named in this document (tags omitted).
UniProt Q86U44: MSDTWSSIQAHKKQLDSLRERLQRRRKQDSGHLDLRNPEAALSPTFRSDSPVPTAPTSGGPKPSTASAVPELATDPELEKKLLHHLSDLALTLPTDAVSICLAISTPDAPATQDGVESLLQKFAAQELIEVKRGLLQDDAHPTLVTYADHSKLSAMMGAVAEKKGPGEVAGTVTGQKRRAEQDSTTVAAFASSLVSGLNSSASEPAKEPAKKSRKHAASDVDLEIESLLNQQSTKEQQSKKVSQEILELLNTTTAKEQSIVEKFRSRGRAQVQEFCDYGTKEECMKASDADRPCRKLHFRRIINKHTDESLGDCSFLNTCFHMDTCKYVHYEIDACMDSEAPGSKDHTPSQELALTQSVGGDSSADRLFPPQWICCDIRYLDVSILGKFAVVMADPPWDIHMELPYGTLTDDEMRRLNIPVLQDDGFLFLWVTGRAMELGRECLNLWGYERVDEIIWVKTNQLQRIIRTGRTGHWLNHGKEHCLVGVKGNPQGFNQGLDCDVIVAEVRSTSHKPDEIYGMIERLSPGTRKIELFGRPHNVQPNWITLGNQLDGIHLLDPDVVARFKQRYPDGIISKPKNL
UniProt Q9UHP3: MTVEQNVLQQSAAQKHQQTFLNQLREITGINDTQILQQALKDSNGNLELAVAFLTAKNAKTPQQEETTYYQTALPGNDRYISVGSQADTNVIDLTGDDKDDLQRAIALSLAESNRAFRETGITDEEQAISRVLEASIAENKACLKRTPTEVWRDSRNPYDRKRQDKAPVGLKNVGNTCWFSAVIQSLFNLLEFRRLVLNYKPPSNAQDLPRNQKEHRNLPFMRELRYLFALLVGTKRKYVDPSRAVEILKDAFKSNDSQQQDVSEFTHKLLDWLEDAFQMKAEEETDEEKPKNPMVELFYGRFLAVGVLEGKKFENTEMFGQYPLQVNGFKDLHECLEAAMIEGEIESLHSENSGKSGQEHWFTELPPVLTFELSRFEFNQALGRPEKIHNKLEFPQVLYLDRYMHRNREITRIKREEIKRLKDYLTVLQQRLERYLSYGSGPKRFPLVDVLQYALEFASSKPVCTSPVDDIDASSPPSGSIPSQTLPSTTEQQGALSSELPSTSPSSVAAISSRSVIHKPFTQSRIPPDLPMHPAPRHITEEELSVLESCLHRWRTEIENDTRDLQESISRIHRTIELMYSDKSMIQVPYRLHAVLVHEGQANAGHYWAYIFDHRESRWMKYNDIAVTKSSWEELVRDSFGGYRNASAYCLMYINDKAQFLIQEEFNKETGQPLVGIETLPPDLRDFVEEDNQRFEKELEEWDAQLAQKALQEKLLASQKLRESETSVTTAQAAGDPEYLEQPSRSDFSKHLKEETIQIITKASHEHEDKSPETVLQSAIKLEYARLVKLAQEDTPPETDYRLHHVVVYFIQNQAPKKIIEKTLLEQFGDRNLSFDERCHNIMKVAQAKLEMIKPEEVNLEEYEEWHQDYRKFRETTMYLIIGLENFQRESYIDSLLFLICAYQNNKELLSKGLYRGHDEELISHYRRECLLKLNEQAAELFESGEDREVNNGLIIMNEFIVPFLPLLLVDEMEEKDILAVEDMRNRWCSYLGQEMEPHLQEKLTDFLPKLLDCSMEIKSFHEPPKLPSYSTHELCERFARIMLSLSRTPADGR

What was measured:
Myc-METTL3 (human) = Myc-METTL3 (human) (UniProt Q86U44); assay: co-IP; HEK-293T cells co-transfected with Flag-USP25 and Myc-METTL3; IP with anti-Flag or anti-Myc affinity gel
[1] = target: METTL3 (endogenous) (human (endogenous in U87-MG and U251)) (UniProt Q86U44); assay: co-IP; endogenous proteins in U87-MG and U251 cells; reciprocal IP with anti-METTL3 or anti-USP25 antibody

Row | binding (Myc-METTL3 (human)) | binding [1] | Substance
1 | binds |  | Flag-USP25 (from UniProt Q9UHP3 1-1055) (enzyme)
2 |  | binds | USP25 (endogenous) (from UniProt Q9UHP3 1-1055) (enzyme)
